{
  "sequences": {"note": "Chains of the proteins cited; added tags and fusions are not shown.", "NDUFA10, O95299, UniProt O95299, whole entry": "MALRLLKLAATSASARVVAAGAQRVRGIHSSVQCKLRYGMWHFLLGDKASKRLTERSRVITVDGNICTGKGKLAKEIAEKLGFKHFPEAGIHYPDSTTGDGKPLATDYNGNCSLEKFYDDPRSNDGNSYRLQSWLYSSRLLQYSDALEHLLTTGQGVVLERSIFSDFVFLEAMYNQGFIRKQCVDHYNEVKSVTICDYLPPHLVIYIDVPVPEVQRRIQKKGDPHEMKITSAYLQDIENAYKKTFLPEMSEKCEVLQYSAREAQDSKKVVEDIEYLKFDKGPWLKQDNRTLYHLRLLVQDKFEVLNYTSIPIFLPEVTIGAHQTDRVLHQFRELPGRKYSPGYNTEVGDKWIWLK", "TRAPPC3, O43617, UniProt O43617, whole entry": "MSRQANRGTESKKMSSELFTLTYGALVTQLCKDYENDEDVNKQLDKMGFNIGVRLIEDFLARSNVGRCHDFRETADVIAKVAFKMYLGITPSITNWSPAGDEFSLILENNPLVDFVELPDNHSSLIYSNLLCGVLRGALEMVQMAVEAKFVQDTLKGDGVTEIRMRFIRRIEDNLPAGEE", "UBR4, Q5T4S7, UniProt Q5T4S7, whole entry": "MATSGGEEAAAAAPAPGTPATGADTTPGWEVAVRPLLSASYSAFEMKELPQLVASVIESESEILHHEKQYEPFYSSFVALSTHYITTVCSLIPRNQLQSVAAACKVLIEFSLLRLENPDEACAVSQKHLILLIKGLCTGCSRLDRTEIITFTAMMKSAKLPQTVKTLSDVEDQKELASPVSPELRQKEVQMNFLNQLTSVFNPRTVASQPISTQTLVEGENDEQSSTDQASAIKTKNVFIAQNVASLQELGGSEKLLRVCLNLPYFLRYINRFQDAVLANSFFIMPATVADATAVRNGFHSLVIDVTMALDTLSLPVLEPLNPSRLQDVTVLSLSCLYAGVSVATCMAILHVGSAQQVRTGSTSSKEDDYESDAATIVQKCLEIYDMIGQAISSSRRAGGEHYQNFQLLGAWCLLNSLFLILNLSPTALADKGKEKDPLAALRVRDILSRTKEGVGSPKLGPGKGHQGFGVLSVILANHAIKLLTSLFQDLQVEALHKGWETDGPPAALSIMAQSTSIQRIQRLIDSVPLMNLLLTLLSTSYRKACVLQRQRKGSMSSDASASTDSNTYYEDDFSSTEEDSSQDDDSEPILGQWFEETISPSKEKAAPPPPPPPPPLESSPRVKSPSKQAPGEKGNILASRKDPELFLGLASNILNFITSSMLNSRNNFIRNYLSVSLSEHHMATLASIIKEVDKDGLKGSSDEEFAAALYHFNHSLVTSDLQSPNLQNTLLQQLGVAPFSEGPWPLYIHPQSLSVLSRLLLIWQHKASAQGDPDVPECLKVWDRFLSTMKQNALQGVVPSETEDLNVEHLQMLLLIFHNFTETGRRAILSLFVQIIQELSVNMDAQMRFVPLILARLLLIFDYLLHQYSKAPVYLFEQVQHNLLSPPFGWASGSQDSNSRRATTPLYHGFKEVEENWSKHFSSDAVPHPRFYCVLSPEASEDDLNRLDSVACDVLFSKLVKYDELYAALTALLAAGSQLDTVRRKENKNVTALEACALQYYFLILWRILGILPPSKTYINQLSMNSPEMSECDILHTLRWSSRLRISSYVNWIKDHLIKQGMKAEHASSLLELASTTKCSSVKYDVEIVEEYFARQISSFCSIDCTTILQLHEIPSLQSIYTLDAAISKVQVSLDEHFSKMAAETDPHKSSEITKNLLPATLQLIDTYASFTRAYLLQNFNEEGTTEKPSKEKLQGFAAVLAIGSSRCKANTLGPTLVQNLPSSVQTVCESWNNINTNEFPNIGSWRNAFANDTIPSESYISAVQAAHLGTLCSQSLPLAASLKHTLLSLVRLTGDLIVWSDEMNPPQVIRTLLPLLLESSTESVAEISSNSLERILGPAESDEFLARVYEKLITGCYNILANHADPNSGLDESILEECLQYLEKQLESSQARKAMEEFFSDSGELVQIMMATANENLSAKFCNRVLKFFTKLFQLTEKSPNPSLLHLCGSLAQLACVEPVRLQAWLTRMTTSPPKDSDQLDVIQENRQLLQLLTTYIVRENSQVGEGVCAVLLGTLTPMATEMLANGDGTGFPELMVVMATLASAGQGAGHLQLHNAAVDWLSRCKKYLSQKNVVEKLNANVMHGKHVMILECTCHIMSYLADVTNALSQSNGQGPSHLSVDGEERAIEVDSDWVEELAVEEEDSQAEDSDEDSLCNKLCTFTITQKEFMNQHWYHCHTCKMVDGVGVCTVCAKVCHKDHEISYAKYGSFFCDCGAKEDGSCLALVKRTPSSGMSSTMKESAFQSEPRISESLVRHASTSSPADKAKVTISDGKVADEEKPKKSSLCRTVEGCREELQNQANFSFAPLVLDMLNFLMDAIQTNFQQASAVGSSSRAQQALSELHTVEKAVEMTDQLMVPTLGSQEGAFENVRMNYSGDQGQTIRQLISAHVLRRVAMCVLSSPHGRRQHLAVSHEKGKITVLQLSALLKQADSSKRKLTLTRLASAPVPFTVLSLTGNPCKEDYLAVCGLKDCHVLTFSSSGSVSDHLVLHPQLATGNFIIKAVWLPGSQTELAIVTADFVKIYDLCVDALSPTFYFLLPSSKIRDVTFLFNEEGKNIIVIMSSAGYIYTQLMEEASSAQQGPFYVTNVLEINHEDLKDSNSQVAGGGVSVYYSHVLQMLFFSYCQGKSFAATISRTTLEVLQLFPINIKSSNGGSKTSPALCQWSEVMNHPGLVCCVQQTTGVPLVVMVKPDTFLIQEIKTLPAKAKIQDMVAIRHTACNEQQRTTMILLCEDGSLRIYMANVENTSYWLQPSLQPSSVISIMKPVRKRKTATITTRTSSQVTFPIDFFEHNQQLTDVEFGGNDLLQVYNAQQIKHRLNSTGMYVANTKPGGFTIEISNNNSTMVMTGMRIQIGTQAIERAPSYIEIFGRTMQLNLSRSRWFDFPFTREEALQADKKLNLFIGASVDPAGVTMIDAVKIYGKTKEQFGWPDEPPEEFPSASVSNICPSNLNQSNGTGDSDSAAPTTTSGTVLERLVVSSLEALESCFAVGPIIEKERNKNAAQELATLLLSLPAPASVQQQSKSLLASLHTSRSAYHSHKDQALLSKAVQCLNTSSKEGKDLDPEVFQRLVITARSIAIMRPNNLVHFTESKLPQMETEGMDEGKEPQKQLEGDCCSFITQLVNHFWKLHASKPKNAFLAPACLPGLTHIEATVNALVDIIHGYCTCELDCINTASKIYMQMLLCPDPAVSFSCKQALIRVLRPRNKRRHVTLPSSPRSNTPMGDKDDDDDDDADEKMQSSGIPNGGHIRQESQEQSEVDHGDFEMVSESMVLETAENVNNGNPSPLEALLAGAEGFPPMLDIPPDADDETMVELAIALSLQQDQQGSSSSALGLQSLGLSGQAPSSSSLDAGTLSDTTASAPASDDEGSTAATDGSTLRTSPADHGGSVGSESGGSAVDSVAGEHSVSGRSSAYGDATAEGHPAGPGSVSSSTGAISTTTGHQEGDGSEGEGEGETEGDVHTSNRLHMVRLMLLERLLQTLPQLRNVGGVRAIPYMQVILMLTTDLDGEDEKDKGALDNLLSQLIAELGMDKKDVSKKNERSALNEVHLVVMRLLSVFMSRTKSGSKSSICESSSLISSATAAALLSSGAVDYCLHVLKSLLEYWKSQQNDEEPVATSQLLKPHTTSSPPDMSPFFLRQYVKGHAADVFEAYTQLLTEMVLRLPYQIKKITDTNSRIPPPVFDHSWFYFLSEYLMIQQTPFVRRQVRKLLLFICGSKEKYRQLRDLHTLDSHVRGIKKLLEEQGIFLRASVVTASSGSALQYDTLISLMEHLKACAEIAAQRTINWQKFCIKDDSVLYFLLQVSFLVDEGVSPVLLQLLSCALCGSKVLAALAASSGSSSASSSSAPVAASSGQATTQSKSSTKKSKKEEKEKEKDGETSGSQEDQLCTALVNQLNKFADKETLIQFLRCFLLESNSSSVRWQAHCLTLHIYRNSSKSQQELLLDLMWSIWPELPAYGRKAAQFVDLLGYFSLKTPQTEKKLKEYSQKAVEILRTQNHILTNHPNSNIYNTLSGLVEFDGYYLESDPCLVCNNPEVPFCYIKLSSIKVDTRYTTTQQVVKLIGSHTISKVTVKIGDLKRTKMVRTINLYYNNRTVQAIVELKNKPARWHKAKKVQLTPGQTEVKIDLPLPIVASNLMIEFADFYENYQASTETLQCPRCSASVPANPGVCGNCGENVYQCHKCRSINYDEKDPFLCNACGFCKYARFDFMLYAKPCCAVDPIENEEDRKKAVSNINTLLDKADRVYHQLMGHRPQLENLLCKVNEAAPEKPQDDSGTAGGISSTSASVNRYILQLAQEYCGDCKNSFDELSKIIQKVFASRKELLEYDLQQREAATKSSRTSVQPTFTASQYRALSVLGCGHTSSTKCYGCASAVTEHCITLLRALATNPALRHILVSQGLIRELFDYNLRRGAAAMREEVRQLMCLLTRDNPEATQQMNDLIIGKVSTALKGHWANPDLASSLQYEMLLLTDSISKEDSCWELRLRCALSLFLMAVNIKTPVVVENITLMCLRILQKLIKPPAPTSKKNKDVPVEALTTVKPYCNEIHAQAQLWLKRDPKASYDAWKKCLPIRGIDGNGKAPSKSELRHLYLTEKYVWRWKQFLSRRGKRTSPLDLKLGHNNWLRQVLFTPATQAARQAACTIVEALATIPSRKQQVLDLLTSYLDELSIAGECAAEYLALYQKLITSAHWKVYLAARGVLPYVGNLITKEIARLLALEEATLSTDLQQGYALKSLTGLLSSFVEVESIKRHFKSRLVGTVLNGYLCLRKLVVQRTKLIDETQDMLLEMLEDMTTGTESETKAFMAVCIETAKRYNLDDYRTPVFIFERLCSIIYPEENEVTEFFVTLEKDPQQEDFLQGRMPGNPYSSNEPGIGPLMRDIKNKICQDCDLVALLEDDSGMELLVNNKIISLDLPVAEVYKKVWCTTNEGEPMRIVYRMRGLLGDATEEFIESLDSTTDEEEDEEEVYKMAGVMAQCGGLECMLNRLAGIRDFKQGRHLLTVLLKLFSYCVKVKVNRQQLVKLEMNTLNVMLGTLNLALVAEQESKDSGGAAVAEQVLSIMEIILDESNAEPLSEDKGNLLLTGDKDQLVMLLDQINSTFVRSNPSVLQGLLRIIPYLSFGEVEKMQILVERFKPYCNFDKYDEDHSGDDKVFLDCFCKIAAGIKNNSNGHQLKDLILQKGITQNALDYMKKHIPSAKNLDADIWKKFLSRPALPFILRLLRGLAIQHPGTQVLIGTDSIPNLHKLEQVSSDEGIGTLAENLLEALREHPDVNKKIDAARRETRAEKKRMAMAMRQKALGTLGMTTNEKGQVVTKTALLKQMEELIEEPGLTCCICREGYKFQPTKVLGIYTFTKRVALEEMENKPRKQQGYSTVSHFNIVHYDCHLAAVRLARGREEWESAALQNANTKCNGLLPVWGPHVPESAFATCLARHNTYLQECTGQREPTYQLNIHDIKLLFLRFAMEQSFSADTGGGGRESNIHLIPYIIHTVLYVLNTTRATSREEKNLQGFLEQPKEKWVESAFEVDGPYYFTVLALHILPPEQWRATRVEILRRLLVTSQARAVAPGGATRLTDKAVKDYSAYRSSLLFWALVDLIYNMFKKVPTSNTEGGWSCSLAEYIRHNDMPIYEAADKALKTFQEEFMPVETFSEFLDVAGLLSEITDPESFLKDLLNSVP", "CD3EAP, O15446, UniProt O15446, whole entry": "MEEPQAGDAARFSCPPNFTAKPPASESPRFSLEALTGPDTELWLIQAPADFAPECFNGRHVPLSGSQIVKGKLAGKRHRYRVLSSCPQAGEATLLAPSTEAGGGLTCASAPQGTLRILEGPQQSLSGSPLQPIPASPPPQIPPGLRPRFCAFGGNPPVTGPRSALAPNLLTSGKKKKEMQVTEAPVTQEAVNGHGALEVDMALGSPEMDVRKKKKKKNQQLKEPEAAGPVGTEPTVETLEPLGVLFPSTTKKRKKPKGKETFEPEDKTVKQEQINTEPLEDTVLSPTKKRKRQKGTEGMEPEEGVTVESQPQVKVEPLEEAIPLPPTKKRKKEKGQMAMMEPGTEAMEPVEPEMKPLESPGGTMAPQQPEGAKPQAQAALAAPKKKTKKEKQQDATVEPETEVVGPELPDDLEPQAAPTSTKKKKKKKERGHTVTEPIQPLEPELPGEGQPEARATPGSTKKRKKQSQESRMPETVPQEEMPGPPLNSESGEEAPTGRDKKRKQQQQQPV", "FGF2, P09038, UniProt P09038, whole entry": "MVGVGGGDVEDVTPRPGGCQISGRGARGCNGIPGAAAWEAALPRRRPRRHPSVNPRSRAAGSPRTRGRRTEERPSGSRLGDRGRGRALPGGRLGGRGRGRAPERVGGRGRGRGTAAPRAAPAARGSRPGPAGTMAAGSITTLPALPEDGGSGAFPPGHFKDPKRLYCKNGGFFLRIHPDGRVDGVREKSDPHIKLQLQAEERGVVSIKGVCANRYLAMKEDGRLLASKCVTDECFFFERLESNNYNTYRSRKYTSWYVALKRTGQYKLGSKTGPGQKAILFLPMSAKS"},
  "source": "the supplement of paper PMC10032668",
  "assay_in_all_cases": "PRISMA enrichment of interactor (LFQ) in peptide spot vs all other peptide spots (log2 fold change); higher = stronger / more specific binding of the interactor to the peptide",
  "key": {"[1]": {"target": "AOC3, Q16853", "experimental": "(§1)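 PRISMA: 221 full-length sORF-encoded peptides (3-15 aa), plus SOS1/GLUT1 control peptides, were spot-synthesized on cellulose membranes in triplicate. Membranes were incubated with HEK293T lysate, and bound proteins were identified by LC-MS/MS with LFQ. Enrichment is the log2 fold change versus all other peptide spots; only significant interactors are listed (cutoff c=6, x0=2.8).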"}, "[2]": {"target": "DFFA, O00273", "experimental": "as §1"}, "[3]": {"target": "GET1, O00258", "experimental": "as §1"}, "[4]": {"target": "RMDN3, Q96TC7", "experimental": "as §1"}, "[5]": {"target": "ZBTB11, O95625", "experimental": "as §1"}, "[6]": {"target": "ZC3HAV1, Q7Z2W4", "experimental": "as §1"}, "[7]": {"target": "ASH2L", "experimental": "as §1"}, "[8]": {"target": "DDX23, Q9BUQ8", "experimental": "as §1"}, "[9]": {"target": "DNAJB4, Q9UDY4", "experimental": "as §1"}, "[10]": {"target": "GARS, P41250", "experimental": "as §1"}, "[11]": {"target": "NDUFA10, O95299", "experimental": "as §1"}, "[12]": {"target": "ATG3, Q9NT62", "experimental": "as §1"}, "[13]": {"target": "C19orf47, Q8N9M1", "experimental": "as §1"}, "[14]": {"target": "DCXR, Q7Z4W1", "experimental": "as §1"}, "[15]": {"target": "EMILIN1, Q9Y6C2", "experimental": "as §1"}, "[16]": {"target": "HSPA14, Q0VDF9", "experimental": "as §1"}, "[17]": {"target": "METTL26, Q96S19", "experimental": "as §1"}, "[18]": {"target": "MRPL39, Q9NYK5", "experimental": "as §1"}, "[19]": {"target": "NUP98, P52948", "experimental": "as §1"}, "[20]": {"substrate": "SON, P18583", "experimental": "as §1"}, "[21]": {"target": "SPTSSA, Q969W0", "experimental": "as §1"}, "[22]": {"target": "TGM1, P22735", "experimental": "as §1"}, "[23]": {"target": "YTHDF3, Q7Z739", "experimental": "as §1"}, "[24]": {"target": "ASCC2, Q9H1I8", "experimental": "as §1"}, "[25]": {"target": "COIL, P38432", "experimental": "as §1"}, "[26]": {"target": "COPZ1, P61923", "experimental": "as §1"}, "[27]": {"target": "LARP4, Q71RC2", "experimental": "as §1"}, "[28]": {"target": "MRPS9, P82933", "experimental": "as §1"}, "[29]": {"target": "SEPTIN8, Q92599", "experimental": "as §1"}, "[30]": {"target": "TRAPPC3, O43617", "experimental": "as §1"}, "[31]": {"target": "TUBB8, Q3ZCM7", "experimental": "as §1"}, "[32]": {"target": "UBR4, Q5T4S7", "experimental": "as §1"}, "[33]": {"target": "USP9X, Q93008", "experimental": "as §1"}, "[34]": {"target": "APOD, P05090", "experimental": "as §1"}, "[35]": {"target": "CD3EAP, O15446", "experimental": "as §1"}, "[36]": {"target": "ETHE1, O95571", "experimental": "as §1"}, "[37]": {"target": "EXD2, Q9NVH0", "experimental": "as §1"}, "[38]": {"target": "FGF2, P09038", "experimental": "as §1"}, "[39]": {"target": "FHOD1, Q9Y613", "experimental": "as §1"}, "[40]": {"target": "PDIA5, Q14554", "experimental": "as §1"}, "[41]": {"target": "RTF1, Q92541", "experimental": "as §1"}},
  "note": "This is one part of the list. Only hits are listed; about a third recur on repeated control peptides.",
  "data": [
    {"binder": "MELKTAA", "note": "[SLC52A3]", "values": [
      {"measurement": "PRISMA enrichment of interactor (log2)", "setting": "[1]", "value": 6.66},
      {"measurement": "PRISMA enrichment of interactor (log2)", "setting": "[2]", "value": 8.33},
      {"measurement": "PRISMA enrichment of interactor (log2)", "setting": "[3]", "value": 3.99},
      {"measurement": "PRISMA enrichment of interactor (log2)", "setting": "[4]", "value": 6.15},
      {"measurement": "PRISMA enrichment of interactor (log2)", "setting": "[5]", "value": 4.18},
      {"measurement": "PRISMA enrichment of interactor (log2)", "setting": "[6]", "value": 6.09}
    ]},
    {"binder": "MEPGLQGK", "note": "[FGFR1]", "values": [
      {"measurement": "PRISMA enrichment of interactor (log2)", "setting": "[7]", "value": 4.13},
      {"measurement": "PRISMA enrichment of interactor (log2)", "setting": "[8]", "value": 6.58},
      {"measurement": "PRISMA enrichment of interactor (log2)", "setting": "[9]", "value": 4.67},
      {"measurement": "PRISMA enrichment of interactor (log2)", "setting": "[10]", "value": 6.21},
      {"measurement": "PRISMA enrichment of interactor (log2)", "setting": "[11]", "value": 6.37}
    ]},
    {"binder": "MVAQAELRALIL", "note": "[SNHG5]", "values": [
      {"measurement": "PRISMA enrichment of interactor (log2)", "setting": "[12]", "value": 6.14},
      {"measurement": "PRISMA enrichment of interactor (log2)", "setting": "[13]", "value": 4.1},
      {"measurement": "PRISMA enrichment of interactor (log2)", "setting": "[14]", "value": 8.7},
      {"measurement": "PRISMA enrichment of interactor (log2)", "setting": "[15]", "value": 9.14},
      {"measurement": "PRISMA enrichment of interactor (log2)", "setting": "[16]", "value": 6.88},
      {"measurement": "PRISMA enrichment of interactor (log2)", "setting": "[17]", "value": 4.71},
      {"measurement": "PRISMA enrichment of interactor (log2)", "setting": "[18]", "value": 6.8},
      {"measurement": "PRISMA enrichment of interactor (log2)", "setting": "[19]", "value": 5.18},
      {"measurement": "PRISMA enrichment of interactor (log2)", "setting": "[20]", "value": 4.94},
      {"measurement": "PRISMA enrichment of interactor (log2)", "setting": "[21]", "value": 8.27},
      {"measurement": "PRISMA enrichment of interactor (log2)", "setting": "[22]", "value": 4.48},
      {"measurement": "PRISMA enrichment of interactor (log2)", "setting": "[23]", "value": 4.57}
    ]},
    {"binder": "MKIRFVTPTTSKE", "note": "[RP11-326I11.3]", "values": [
      {"measurement": "PRISMA enrichment of interactor (log2)", "setting": "[24]", "value": 4.23},
      {"measurement": "PRISMA enrichment of interactor (log2)", "setting": "[25]", "value": 4.71},
      {"measurement": "PRISMA enrichment of interactor (log2)", "setting": "[26]", "value": 5.54},
      {"measurement": "PRISMA enrichment of interactor (log2)", "setting": "[8]", "value": 6.15},
      {"measurement": "PRISMA enrichment of interactor (log2)", "setting": "[27]", "value": 8.97},
      {"measurement": "PRISMA enrichment of interactor (log2)", "setting": "[28]", "value": 4.89},
      {"measurement": "PRISMA enrichment of interactor (log2)", "setting": "[29]", "value": 5.02},
      {"measurement": "PRISMA enrichment of interactor (log2)", "setting": "[30]", "value": 3.96},
      {"measurement": "PRISMA enrichment of interactor (log2)", "setting": "[31]", "value": 5.64},
      {"measurement": "PRISMA enrichment of interactor (log2)", "setting": "[32]", "value": 5.27},
      {"measurement": "PRISMA enrichment of interactor (log2)", "setting": "[33]", "value": 5.32}
    ]},
    {"binder": "MADQDRKPA", "note": "[TAX1BP1]", "values": [
      {"measurement": "PRISMA enrichment of interactor (log2)", "setting": "[34]", "value": 4.28},
      {"measurement": "PRISMA enrichment of interactor (log2)", "setting": "[35]", "value": 5.24},
      {"measurement": "PRISMA enrichment of interactor (log2)", "setting": "[36]", "value": 4.13},
      {"measurement": "PRISMA enrichment of interactor (log2)", "setting": "[37]", "value": 7.92},
      {"measurement": "PRISMA enrichment of interactor (log2)", "setting": "[38]", "value": 6.93},
      {"measurement": "PRISMA enrichment of interactor (log2)", "setting": "[39]", "value": 7.56},
      {"measurement": "PRISMA enrichment of interactor (log2)", "setting": "[40]", "value": 6.54},
      {"measurement": "PRISMA enrichment of interactor (log2)", "setting": "[41]", "value": 5.9}
    ]}
  ]
}
